Reference: publication PMC4859800
These are yes or no findings as the source states them, for the method shown.

What was measured:
Test in all cases: two-hybrid; array-based Y2H matrix; preys in pACT2 (PJ69-4a) mated against 23 baits in pAS2-1 (PJ69-4α); growth on SD-Leu-Trp-His + 6 mM 3-AT greater than the negative control after 2 weeks
[1] = molecular target: T1, Rrp14 (Y2H bait, pAS2-1) (S. cerevisiae) (UniProt P36080)
T1 sequence: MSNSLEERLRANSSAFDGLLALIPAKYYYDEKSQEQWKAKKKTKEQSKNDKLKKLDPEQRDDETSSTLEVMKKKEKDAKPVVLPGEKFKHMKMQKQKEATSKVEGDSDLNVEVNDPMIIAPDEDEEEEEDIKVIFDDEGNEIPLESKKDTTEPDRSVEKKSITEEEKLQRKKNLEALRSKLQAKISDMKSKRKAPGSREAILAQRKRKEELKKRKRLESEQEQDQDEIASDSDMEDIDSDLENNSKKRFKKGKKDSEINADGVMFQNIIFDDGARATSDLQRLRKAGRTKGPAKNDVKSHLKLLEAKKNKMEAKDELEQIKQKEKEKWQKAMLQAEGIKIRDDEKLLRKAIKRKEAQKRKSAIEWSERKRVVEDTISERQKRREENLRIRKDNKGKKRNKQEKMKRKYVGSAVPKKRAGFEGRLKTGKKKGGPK

[2] = molecular target: T2, Tma16 (Y2H bait, pAS2-1) (S. cerevisiae) (UniProt Q08687)
T2 sequence: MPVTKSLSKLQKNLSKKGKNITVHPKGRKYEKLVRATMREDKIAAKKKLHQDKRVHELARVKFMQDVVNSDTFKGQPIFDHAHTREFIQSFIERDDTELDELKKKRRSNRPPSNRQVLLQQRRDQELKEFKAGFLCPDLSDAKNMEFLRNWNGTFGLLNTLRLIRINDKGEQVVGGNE

[3] = molecular target: T3, Mak5 (Y2H bait, pAS2-1) (S. cerevisiae) (UniProt P38112)
T3 sequence: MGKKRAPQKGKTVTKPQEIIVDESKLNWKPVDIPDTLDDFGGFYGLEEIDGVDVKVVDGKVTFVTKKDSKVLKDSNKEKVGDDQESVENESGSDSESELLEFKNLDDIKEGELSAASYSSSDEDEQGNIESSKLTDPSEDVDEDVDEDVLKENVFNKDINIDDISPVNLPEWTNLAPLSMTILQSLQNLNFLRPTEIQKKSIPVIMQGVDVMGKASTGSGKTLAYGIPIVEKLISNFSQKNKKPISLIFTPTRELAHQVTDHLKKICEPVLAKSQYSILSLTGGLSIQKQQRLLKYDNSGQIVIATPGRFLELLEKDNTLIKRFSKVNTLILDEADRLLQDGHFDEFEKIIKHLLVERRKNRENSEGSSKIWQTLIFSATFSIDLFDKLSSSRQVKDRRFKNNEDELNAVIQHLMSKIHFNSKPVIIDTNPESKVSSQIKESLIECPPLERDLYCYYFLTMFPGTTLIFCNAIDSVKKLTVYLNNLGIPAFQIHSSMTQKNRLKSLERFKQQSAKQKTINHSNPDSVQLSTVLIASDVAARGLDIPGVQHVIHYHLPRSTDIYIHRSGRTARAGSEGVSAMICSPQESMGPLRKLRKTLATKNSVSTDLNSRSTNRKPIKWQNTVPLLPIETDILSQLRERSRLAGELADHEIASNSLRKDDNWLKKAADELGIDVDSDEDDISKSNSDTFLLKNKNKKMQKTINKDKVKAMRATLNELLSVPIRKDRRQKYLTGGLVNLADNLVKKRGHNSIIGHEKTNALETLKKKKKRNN

[4] = molecular target: T4, Dbp10 (Y2H bait, pAS2-1) (S. cerevisiae) (UniProt Q12389)
T4 sequence: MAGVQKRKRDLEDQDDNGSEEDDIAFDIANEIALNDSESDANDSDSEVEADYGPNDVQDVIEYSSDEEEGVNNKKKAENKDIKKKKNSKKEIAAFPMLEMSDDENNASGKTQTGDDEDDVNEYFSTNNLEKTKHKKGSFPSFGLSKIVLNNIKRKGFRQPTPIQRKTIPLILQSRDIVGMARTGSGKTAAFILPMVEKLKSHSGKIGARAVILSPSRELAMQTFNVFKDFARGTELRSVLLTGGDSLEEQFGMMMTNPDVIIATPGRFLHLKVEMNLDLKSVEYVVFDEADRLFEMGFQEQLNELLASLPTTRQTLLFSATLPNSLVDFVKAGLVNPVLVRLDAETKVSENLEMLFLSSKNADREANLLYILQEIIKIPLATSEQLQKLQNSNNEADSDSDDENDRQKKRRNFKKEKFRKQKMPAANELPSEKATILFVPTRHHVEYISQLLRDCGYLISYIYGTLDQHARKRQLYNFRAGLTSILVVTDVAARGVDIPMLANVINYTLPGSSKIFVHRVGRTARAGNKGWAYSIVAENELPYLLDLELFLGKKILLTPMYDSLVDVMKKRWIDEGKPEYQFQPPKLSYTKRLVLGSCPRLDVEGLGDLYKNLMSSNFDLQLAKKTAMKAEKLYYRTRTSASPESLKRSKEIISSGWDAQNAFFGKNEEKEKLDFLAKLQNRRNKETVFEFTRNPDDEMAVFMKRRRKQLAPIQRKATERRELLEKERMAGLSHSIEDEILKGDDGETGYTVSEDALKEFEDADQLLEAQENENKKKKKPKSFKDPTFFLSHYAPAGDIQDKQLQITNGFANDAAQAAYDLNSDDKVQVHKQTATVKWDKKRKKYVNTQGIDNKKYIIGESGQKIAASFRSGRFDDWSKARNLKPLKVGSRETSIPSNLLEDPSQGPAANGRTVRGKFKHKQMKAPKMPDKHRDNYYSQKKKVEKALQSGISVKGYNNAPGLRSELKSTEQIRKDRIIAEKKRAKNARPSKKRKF

Measured: binding

B1: Nop4 RRM 1–2 (Y2H prey, pACT2) (domain or fragment, UniProt P37838 1-250)
chain: MEETIENVEVPSSNVSKQNDDGLDMKTLFVRSIPQDVTDEQLADFFSNFAPIKHAVVVKDTNKRSRGFGFVSFAVEDDTKEALAKARKTKFNGHILRVDIAKRRDRSKKTSEVVEKSTPESSEKITGQNNEDEDDADGEDSMLKGKPKLIIRNMPWSCRDPVKLKKIFGRYGTVVEATIPRKRDGKLCGFAFVTMKKISNCRIALENTKDLKIDGRKVAVDFAVQKNRWEDYKKAQPEMNDKDDNESGNE
no binding: all assays above
